Results taken from paper PMC12639135.
No constants are given. Whether binding was seen depends on the method and setting. In cells and extracts the contact can be indirect. These calls come from enrichment with a bait or labelling near it, and not all partners need be listed.

Sequences of proteins named here, by UniProt entry; tags and fusion partners are left off.
UniProt O14929: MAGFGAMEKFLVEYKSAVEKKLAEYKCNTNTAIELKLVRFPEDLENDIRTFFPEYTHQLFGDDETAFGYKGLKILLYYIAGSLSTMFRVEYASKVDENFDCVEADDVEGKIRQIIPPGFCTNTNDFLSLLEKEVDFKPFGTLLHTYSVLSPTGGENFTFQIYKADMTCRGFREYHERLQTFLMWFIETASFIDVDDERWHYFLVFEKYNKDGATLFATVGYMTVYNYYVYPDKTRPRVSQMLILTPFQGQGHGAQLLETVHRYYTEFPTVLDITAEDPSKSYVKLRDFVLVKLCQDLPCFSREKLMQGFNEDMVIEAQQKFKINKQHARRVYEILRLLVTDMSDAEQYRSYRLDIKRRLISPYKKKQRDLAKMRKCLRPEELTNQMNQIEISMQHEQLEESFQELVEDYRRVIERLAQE
UniProt P27694: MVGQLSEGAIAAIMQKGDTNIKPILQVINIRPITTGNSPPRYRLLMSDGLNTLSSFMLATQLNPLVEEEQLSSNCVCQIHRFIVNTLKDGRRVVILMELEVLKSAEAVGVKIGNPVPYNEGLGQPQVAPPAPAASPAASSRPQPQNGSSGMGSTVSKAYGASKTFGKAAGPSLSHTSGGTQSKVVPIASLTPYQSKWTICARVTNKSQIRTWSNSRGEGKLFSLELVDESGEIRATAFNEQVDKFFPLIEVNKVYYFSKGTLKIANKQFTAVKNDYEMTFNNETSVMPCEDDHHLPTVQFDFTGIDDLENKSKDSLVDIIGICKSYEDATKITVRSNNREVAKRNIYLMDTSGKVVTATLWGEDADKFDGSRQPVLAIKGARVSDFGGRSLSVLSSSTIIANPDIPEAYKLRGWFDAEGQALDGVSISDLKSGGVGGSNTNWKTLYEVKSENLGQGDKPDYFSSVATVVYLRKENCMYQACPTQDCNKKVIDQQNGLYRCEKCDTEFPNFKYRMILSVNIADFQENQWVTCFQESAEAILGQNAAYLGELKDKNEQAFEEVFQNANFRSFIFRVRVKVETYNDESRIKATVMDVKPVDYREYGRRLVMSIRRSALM
UniProt O60934: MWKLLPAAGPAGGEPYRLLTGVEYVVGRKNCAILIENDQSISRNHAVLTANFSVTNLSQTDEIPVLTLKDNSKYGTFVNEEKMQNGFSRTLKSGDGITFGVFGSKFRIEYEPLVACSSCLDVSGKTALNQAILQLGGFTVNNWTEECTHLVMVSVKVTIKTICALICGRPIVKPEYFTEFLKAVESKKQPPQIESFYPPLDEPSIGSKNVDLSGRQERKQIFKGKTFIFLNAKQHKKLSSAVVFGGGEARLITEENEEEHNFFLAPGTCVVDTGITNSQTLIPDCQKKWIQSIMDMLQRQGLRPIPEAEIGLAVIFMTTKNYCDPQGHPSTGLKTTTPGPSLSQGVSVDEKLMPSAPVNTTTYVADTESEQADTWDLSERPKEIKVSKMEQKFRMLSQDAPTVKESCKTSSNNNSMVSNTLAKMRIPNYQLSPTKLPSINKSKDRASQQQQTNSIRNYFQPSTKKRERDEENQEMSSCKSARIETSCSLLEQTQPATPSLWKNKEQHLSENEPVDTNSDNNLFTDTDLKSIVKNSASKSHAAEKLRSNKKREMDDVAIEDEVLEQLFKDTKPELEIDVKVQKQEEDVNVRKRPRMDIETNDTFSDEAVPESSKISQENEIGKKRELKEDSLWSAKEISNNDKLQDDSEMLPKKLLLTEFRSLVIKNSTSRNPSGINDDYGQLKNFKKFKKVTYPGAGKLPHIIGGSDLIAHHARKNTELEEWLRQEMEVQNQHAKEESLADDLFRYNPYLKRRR

B1: POLD3 (endogenous) (protein, UniProt Q15054 1-466)
chain: MADQLYLENIDEFVTDQNKIVTYKWLSYTLGVHVNQAKQMLYDYVERKRKENSGAQLHVTYLVSGSLIQNGHSCHKVAVVREDKLEAVKSKLAVTASIHVYSIQKAMLKDSGPLFNTDYDILKSNLQNCSKFSAIQCAAAVPRAPAESSSSSKKFEQSHLHMSSETQANNELTTNGHGPPASKQVSQQPKGIMGMFASKAAAKTQETNKETKTEAKEVTNASAAGNKAPGKGNMMSNFFGKAAMNKFKVNLDSEQAVKEEKIVEQPTVSVTEPKLATPAGLKKSSKKAEPVKVLQKEKKRGKRVALSDDETKETENMRKKRRRIKLPESDSSEDEVFPDSPGAYEAESPSPPPPPSPPLEPVPKTEPEPPSVKSSSGENKRKRKRVLKSKTYLDGEGCIVTEKVYESESCTDSEEELNMKTSSVHRPPAMTVKKEPREERKGPKKGTAALGKANRQVSITGFFQRK

What follows are molecules tested against Flag-tagged HAT1 (UniProt O14929) (assay: affinity purification with mass spectrometry; Flag beads pulldown of HAT1, high-resolution LC-MS/MS; cell line not stated).

| binding | Molecule |
| --- | --- |
| binds | RPA1 (endogenous) (from UniProt P27694 1-616) |
| binds | NBS1 (endogenous) (from UniProt O60934 1-754) |
| binds | B1 |
